Source: patent publication US5316771A, “Method of amphiphatic drug loading in liposomes by ammonium ion gradient” (priority 1992, dated 1994)
At least one compound was matched to its structure with a doubt left.

Experiment: Internal pH of ammonium sulfate liposomes by pyranine fluorescence
Type: physicochemical
Conditions: after Sephadex G-50 column in […] potassium chloride, pH 7.5

Structure (SMILES): O=S(=O)(O)c1cc(O)c2ccc3c(S(=O)(=O)O)cc(S(=O)(=O)O)c4ccc1c2c34 [Pyranine, 8-hydroxypyrene-1,3,6-trisulfonate]
- Internal pH change of liposomes: at least 3 units
